Data: the supplement of paper PMC10849652
This is one part of the list.

Chains of the proteins cited; added tags and fusions are not shown. Lines headed by an entry give the natural chain unless they say otherwise; changes in a name come on top.
UniProt O14613: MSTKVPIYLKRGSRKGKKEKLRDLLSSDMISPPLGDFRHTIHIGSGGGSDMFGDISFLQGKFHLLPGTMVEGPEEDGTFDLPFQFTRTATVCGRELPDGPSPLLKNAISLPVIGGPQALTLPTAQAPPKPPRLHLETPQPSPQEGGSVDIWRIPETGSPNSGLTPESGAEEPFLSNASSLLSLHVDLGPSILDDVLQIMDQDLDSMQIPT
UniProt O94986: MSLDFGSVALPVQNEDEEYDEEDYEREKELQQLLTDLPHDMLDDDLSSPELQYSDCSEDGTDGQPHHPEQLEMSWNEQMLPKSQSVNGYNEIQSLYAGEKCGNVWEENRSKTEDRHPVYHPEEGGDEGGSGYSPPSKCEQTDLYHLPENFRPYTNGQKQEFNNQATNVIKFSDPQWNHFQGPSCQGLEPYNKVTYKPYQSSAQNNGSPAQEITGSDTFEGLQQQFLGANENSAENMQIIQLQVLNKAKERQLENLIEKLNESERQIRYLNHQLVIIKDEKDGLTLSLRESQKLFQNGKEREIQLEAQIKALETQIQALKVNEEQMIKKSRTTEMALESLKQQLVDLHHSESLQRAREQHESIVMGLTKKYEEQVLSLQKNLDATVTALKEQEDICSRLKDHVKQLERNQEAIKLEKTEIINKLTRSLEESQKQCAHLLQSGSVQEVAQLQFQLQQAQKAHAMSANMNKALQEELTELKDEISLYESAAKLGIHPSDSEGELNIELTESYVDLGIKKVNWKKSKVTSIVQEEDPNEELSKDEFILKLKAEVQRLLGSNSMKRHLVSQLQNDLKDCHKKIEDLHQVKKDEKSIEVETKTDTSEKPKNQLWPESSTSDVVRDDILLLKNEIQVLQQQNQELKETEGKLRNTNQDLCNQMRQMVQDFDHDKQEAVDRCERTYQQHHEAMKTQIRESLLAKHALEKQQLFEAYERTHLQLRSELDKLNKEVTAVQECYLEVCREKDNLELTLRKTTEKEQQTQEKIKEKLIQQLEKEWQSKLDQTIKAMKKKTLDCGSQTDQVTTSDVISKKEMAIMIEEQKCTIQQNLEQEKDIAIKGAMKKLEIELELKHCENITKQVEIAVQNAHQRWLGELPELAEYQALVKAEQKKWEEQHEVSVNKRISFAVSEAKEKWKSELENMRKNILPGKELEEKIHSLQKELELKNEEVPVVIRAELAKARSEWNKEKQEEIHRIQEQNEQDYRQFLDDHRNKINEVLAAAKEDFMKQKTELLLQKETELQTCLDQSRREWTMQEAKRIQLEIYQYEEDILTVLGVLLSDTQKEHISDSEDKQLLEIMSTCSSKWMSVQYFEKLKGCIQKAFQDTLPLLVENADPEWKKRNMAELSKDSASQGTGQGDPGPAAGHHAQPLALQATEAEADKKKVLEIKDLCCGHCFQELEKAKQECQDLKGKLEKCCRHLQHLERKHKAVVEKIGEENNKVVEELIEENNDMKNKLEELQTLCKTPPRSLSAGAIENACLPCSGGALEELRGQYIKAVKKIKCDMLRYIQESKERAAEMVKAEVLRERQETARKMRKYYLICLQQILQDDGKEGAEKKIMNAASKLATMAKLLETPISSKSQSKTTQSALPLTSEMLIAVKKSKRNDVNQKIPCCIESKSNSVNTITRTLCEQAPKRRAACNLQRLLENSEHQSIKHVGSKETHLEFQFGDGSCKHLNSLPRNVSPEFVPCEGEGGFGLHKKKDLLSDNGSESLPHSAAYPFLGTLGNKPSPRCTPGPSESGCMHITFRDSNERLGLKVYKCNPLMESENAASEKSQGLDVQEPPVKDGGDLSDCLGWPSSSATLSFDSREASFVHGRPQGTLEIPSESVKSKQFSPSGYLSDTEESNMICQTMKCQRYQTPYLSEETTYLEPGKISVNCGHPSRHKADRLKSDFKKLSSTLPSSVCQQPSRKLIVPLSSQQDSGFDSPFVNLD
UniProt Q00587: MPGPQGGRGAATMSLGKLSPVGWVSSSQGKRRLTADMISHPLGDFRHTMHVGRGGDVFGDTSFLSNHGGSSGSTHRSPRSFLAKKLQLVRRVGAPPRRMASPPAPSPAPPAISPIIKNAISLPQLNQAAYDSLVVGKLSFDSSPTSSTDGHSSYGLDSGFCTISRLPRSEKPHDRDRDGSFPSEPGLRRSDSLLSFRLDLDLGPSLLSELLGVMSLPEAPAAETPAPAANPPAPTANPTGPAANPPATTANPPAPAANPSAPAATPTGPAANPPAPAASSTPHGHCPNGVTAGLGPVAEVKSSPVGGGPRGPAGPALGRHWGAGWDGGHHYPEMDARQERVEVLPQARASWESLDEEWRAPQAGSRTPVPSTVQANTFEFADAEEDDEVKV
UniProt P21127: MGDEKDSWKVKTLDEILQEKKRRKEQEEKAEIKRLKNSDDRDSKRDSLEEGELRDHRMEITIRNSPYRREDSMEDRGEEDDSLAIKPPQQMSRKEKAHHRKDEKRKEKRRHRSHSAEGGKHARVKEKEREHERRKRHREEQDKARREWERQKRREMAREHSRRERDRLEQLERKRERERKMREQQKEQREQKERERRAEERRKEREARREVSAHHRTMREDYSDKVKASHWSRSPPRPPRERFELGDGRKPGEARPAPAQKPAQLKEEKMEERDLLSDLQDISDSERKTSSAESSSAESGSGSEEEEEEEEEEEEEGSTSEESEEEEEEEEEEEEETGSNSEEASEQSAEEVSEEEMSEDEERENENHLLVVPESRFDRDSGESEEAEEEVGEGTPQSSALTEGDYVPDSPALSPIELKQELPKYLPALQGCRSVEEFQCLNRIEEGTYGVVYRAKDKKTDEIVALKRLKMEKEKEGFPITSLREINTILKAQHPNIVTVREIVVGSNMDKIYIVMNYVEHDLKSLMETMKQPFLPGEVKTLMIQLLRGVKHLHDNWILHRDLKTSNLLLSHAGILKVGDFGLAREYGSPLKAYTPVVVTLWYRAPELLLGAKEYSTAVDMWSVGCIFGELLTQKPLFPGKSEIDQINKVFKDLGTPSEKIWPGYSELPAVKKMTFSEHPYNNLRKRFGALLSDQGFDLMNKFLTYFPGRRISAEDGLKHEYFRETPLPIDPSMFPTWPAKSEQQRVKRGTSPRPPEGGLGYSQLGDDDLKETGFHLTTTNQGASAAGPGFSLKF
UniProt Q71F23: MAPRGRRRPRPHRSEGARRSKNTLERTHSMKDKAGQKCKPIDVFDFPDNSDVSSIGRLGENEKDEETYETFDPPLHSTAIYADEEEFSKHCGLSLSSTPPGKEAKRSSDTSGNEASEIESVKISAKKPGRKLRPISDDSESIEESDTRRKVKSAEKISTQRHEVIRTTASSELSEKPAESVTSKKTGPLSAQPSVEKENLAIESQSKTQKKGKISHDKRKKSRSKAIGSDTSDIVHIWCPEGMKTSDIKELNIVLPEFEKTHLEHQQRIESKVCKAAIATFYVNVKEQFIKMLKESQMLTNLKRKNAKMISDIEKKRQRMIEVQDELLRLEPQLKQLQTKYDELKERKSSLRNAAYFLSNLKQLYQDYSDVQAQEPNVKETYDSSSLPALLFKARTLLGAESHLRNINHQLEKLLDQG
UniProt Q9BUK0: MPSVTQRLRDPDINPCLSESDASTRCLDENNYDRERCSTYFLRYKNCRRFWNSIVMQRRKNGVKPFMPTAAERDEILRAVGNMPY
UniProt Q9HCU4: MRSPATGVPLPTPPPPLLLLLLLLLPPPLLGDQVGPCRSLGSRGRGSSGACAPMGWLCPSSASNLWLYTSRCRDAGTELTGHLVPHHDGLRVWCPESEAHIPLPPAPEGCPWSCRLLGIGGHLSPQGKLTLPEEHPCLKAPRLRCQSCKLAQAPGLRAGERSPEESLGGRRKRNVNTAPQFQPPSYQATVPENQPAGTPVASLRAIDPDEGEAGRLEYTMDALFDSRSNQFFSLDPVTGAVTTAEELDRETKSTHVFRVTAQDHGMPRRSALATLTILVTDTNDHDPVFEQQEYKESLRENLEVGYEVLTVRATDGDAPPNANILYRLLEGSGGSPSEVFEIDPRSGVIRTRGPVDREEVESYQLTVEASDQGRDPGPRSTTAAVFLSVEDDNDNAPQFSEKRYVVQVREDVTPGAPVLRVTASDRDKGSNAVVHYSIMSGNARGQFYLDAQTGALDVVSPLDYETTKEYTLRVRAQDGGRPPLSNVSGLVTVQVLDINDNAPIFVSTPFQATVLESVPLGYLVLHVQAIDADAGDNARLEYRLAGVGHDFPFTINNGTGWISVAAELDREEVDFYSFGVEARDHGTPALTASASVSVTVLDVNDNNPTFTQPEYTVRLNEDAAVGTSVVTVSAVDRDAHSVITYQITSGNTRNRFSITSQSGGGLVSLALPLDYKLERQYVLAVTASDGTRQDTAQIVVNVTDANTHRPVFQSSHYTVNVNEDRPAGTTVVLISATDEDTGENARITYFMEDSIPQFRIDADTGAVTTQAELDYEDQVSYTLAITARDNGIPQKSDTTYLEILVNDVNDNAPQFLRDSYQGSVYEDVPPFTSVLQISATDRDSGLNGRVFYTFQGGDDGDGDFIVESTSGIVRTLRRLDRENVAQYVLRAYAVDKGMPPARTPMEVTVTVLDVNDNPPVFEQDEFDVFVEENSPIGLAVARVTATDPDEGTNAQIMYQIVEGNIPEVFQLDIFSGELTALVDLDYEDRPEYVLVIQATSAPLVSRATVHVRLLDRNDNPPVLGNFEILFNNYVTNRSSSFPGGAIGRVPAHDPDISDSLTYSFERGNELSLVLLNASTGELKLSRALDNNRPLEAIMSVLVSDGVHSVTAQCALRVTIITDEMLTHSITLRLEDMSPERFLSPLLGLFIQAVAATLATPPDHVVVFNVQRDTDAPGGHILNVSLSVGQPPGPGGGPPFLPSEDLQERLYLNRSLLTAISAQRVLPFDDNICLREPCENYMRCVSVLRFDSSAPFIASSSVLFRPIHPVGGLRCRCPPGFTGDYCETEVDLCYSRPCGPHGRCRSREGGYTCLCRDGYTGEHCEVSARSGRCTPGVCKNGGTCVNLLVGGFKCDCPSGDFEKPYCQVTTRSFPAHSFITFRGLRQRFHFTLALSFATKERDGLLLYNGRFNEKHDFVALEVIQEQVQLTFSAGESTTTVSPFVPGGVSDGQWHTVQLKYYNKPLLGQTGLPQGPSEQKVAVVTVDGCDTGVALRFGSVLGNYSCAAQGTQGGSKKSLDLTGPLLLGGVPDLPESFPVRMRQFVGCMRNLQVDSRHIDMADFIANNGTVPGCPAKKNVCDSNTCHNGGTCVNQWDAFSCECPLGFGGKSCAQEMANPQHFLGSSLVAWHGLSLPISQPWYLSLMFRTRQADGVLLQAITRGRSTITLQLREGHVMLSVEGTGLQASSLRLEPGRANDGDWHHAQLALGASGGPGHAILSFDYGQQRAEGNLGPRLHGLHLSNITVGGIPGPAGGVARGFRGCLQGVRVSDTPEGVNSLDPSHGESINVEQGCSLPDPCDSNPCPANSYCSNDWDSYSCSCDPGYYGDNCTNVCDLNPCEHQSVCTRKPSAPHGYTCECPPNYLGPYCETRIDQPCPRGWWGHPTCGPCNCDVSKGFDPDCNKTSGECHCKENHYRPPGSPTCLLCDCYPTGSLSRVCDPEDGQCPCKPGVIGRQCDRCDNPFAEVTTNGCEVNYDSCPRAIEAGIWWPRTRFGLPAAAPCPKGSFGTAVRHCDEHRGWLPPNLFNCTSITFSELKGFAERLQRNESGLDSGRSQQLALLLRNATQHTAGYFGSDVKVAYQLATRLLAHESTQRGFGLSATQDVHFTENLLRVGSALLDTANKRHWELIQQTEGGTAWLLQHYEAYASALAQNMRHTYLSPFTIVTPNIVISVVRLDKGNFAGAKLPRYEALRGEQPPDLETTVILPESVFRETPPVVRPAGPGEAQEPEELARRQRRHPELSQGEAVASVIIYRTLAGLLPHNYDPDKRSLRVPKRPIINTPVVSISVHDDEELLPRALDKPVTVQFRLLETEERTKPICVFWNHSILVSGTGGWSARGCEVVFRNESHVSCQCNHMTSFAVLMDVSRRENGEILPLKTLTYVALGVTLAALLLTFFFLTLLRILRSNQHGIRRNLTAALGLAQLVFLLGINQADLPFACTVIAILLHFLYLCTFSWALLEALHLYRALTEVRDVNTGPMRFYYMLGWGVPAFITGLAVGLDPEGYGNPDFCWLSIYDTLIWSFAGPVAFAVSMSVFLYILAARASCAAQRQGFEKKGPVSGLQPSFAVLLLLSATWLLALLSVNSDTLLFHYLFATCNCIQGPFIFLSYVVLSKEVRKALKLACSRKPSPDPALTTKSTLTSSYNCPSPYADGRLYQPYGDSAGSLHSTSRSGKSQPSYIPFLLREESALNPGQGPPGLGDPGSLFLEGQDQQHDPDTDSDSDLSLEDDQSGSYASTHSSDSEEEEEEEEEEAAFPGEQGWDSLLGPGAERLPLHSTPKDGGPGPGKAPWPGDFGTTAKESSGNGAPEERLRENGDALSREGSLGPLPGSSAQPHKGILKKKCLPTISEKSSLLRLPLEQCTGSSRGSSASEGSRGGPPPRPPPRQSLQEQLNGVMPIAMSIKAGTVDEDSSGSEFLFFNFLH

How the values were obtained:
Test in all cases: log2 fold change, soluble protein after heating vs DMSO (PISA); higher = thermal stabilisation; K562 cells, 10 uM, 30 min; active = over 0.2 and 3.5 SD of the protein, either way, in both replicates (recomputed)
[1] = compound: CS(=O)(=O)c1ccc(-c2cnc(N)c(C(=O)Nc3ccccc3)n2)cc1
Outline: (§1)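 Quantification of soluble protein used TMTpro 16plex LC-MS/MS, with channel sums equalised. Samples were the supernatant after 21,000xg for 90 min of pooled aliquots from K562 cells (2×10^6 cells/mL) treated with 10 μM compound for 30 min, heated for 3 min over 48°C-58°C, and extracted in PBS with 0.5% NP-40 at 4°C. Values, from duplicates, describe thermal stability against control samples on a log2 fold-change scale.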

crizotinib = compound: C[C@@H](Oc1cc(-c2cnn(C3CCNCC3)c2)cnc1N)c1c(Cl)ccc(F)c1Cl [crizotinib]
Outline: as §1

[2] = compound: C[C@@H]1COCCN1C2=NC(=NC(=C2)C3(CC3)S(=O)(=O)C)C4=C5C=CNC5=CC=C4
Outline: as §1

[3] = compound: C[C@H](C1=CC=C(C=C1)C(=O)NC2=C3C=CNC3=NC=C2)N
Outline: as §1

tozasertib = compound: Cc1cc(Nc2cc(N3CCN(C)CC3)nc(Sc3ccc(NC(=O)C4CC4)cc3)n2)n[nH]1 [tozasertib]
Outline: as §1

doramapimod = compound: Cc1ccc(-n2nc(C(C)(C)C)cc2NC(=O)Nc2ccc(OCCN3CCOCC3)c3ccccc23)cc1 [doramapimod]
Outline: as §1

ispinesib = compound: Cc1ccc(C(=O)N(CCCN)[C@@H](c2nc3cc(Cl)ccc3c(=O)n2Cc2ccccc2)C(C)C)cc1 [ispinesib]
Outline: as §1

bafetinib = compound: Cc1ccc(NC(=O)c2ccc(CN3CC[C@H](N(C)C)C3)c(C(F)(F)F)c2)cc1Nc1nccc(-c2cncnc2)n1 [bafetinib]
Outline: as §1

[4] = compound: Cn1cc(-c2ccc3c(c2)CCN3C(=O)Cc2cccc(C(F)(F)F)c2)c2c(N)ncnc21
Outline: as §1

[5] = compound: Cn1cc(-c2ccc3nnc(C(F)(F)c4ccc5ncccc5c4)n3n2)cn1
Outline: as §1

tipifarnib = compound: Cn1cncc1[C@@](N)(c1ccc(Cl)cc1)c1ccc2c(c1)c(-c1cccc(Cl)c1)cc(=O)n2C [tipifarnib]
Outline: as §1

mubritinib = compound: FC(F)(F)c1ccc(/C=C/c2nc(COc3ccc(CCCCn4ccnn4)cc3)co2)cc1 [mubritinib]
Outline: as §1

duvelisib = compound: C[C@H](Nc1ncnc2nc[nH]c12)c1cc2cccc(Cl)c2c(=O)n1-c1ccccc1 [duvelisib]
Outline: as §1

gandotinib = compound: Cc1cc(Nc2cc(CN3CCOCC3)c3nc(C)c(Cc4ccc(Cl)cc4F)n3n2)n[nH]1 [gandotinib]
Outline: as §1

[6] = compound: Cc1cc(SCc2sc(-c3ccc(C(F)(F)F)cc3)nc2C)ccc1OCC(=O)O
Outline: as §1

[7] = compound: Cc1cccc(CC(=O)N2CCc3c2ccc(-c2cn(C)c4ncnc(N)c24)c3F)n1
Outline: as §1

nilotinib = compound: Cc1cn(-c2cc(NC(=O)c3ccc(C)c(Nc4nccc(-c5cccnc5)n4)c3)cc(C(F)(F)F)c2)cn1 [nilotinib]
Outline: as §1

[8] = compound: Cc1nc(Nc2n[nH]c3c2CN(C(=O)N[C@H](CN(C)C)c2ccccc2)C3(C)C)c2sccc2n1
Outline: as §1

dasatinib = compound: Cc1nc(Nc2ncc(C(=O)Nc3c(C)cccc3Cl)s2)cc(N2CCN(CCO)CC2)n1 [dasatinib]
Outline: as §1

[9] = compound: Cc1ncc(-c2ccnc(Nc3ccc(S(C)(=O)=O)cc3)n2)n1C(C)C
Outline: as §1

| Target | log2 fold change [1] | log2 fold change (crizotinib) | log2 fold change [2] | log2 fold change [3] | log2 fold change (tozasertib) | log2 fold change (doramapimod) | log2 fold change (ispinesib) | log2 fold change (bafetinib) | log2 fold change [4] | log2 fold change [5] | log2 fold change (tipifarnib) | log2 fold change (mubritinib) | log2 fold change (duvelisib) | log2 fold change (gandotinib) | log2 fold change [6] | log2 fold change [7] | log2 fold change (nilotinib) | log2 fold change [8] | log2 fold change (dasatinib) | log2 fold change [9] |
| --- | --- | --- | --- | --- | --- | --- | --- | --- | --- | --- | --- | --- | --- | --- | --- | --- | --- | --- | --- | --- |
| CEP120 (UniProt Q8N960) | inactive: -0.119 | inactive: -0.058 | inactive: 0.037 | inactive: 0.159 | inactive: -0.24 | inactive: 0.163 | inactive: -0.16 | inactive: -0.092 | inactive: 0.12 | inactive: -0.149 | inactive: 0.096 | inactive: 0.048 | – | – | – | – | – | – | – | – |
| CDC42EP2 (UniProt O14613) | inactive: -0.153 | – | inactive: -0.141 | – | inactive: -0.2 | – | – | inactive: -0.001 | – | – | – | – | – | – | – | – | – | – | – | – |
| CHIC2 (UniProt Q9UKJ5) | inactive: 0.094 | – | inactive: 0.098 | inactive: -0.009 | – | – | inactive: 0.115 | inactive: 0.173 | inactive: 0.015 | inactive: -0.143 | inactive: 0.012 | inactive: 0.045 | inactive: 0.161 | inactive: -0.044 | inactive: -0.102 | inactive: -0.044 | inactive: 0.02 | inactive: -0.089 | inactive: 0.035 | inactive: 0.132 |
| CEP152 (UniProt O94986) | inactive: 0.06 | inactive: -0.125 | – | – | inactive: -0.152 | inactive: 0.051 | inactive: -0.3 | inactive: -0.066 | – | inactive: 0.17 | inactive: -0.012 | inactive: -0.062 | – | inactive: 0.105 | – | inactive: -0.178 | inactive: -0.132 | inactive: 0.195 | – | inactive: -0.007 |
| CDC42EP1 (UniProt Q00587) | inactive: -0.006 | active: -0.566 | inactive: 0.019 | inactive: -0.041 | – | inactive: 0.076 | inactive: -0.327 | inactive: -0.115 | inactive: 0.079 | inactive: 0.051 | inactive: 0.049 | inactive: 0.007 | – | active: -0.524 | inactive: 0.073 | inactive: 0.092 | inactive: -0.072 | active: -0.59 | inactive: -0.2 | inactive: -0.211 |
| CDC42EP4 (UniProt Q9H3Q1) | inactive: 0.047 | – | inactive: -0.013 | inactive: 0.009 | inactive: -0.115 | – | inactive: -0.016 | inactive: -0.02 | inactive: -0.045 | inactive: -0.016 | inactive: 0.008 | inactive: 0.056 | inactive: -0.058 | inactive: -0.02 | inactive: 0.056 | inactive: 0.021 | inactive: -0.01 | inactive: -0.11 | inactive: 0.013 | inactive: -0.079 |
| CDKN2C (UniProt P42773) | inactive: 0.062 | inactive: 0.12 | – | inactive: -0.02 | inactive: -0.03 | inactive: 0.032 | inactive: 0.274 | inactive: -0.02 | inactive: 0.122 | inactive: 0.252 | inactive: 0.006 | inactive: 0.023 | inactive: 0.215 | inactive: 0.01 | inactive: 0.291 | inactive: -0.105 | inactive: 0.024 | inactive: -0.006 | inactive: 0.051 | inactive: -0.021 |
| CDC42SE1 (UniProt Q9NRR8) | inactive: 0 | inactive: -0.099 | inactive: 0.16 | inactive: -0.031 | – | inactive: -0.06 | inactive: -0.341 | inactive: -0.37 | inactive: 0.107 | inactive: -0.002 | inactive: -0.01 | inactive: -0.065 | – | – | inactive: -0.04 | – | inactive: 0.055 | inactive: 0.055 | inactive: -0.022 | inactive: -0.155 |
| CDK5RAP3 isoform 4 (UniProt Q96JB5) | inactive: -0.017 | inactive: -0.054 | inactive: 0.044 | inactive: -0.038 | – | inactive: -0.033 | inactive: -0.036 | inactive: 0.039 | inactive: 0.008 | inactive: 0.024 | inactive: -0.052 | inactive: 0.083 | – | inactive: -0.051 | inactive: 0.016 | inactive: 0.122 | inactive: -0.094 | inactive: 0.012 | inactive: -0.082 | inactive: 0.054 |
| CDK11B (UniProt P21127) | inactive: 0.025 | active: 1.24 | inactive: 0.052 | inactive: 0.166 | – | inactive: 0 | inactive: 0.022 | inactive: 0.027 | inactive: 0.007 | inactive: 0.228 | inactive: 0.104 | inactive: 0.085 | – | inactive: 0.105 | inactive: 0.007 | inactive: -0.009 | inactive: 0.106 | inactive: -0.038 | inactive: 0.014 | inactive: -0.036 |
| CENPU (UniProt Q71F23) | inactive: -0.101 | inactive: -0.041 | inactive: -0.425 | – | inactive: -0.158 | inactive: 0.245 | – | – | – | – | inactive: 0.075 | – | inactive: -0.17 | – | inactive: -0.114 | – | – | – | inactive: 0.138 | – |
| CDC42SE2 (UniProt Q9NRR3) | inactive: 0.049 | – | inactive: 0.052 | inactive: -0.27 | inactive: -0.023 | – | – | inactive: 0.216 | inactive: 0.003 | – | inactive: -0.021 | inactive: 0.027 | – | – | – | – | inactive: 0.079 | inactive: 0.008 | – | inactive: 0.03 |
| CDK4 (UniProt P11802) | inactive: 0.108 | inactive: -0.108 | inactive: -0.152 | inactive: 0.377 | – | inactive: 0.079 | inactive: 0.094 | inactive: 0.022 | inactive: -0.084 | inactive: -0.117 | inactive: 0.046 | inactive: 0.054 | – | – | inactive: 0.021 | – | inactive: -0.121 | inactive: -0.042 | inactive: -0.056 | inactive: 0.031 |
| CHCHD7 isoform 4 (UniProt Q9BUK0) | inactive: -0.05 | inactive: -0.025 | – | inactive: -0.171 | inactive: -0.038 | inactive: -0.05 | inactive: 0.019 | inactive: -0.101 | inactive: 0.028 | inactive: -0.016 | inactive: -0.005 | inactive: -0.02 | inactive: 0.042 | inactive: -0.007 | inactive: 0.038 | inactive: 0.122 | inactive: -0.092 | inactive: -0.005 | inactive: 0.044 | inactive: -0.064 |
| CENPV (UniProt Q7Z7K6) | inactive: -0.118 | – | inactive: -0.337 | inactive: 0.317 | – | – | inactive: -0.409 | – | inactive: -0.118 | inactive: -0.24 | inactive: 0.114 | – | – | inactive: 0.115 | – | inactive: -0.044 | – | – | – | – |
| CEP85 (UniProt Q6P2H3) | – | – | – | – | – | – | inactive: -0.244 | inactive: 0.055 | – | inactive: -0.004 | inactive: 0.082 | inactive: -0.141 | inactive: 0.045 | inactive: 0.156 | inactive: -0.183 | inactive: 0.044 | – | – | inactive: 0.145 | – |
| CELSR2 (UniProt Q9HCU4) | – | – | – | inactive: 0.023 | – | – | – | – | inactive: -0.096 | – | – | – | – | – | – | – | – | – | – | – |

Exported comma-delimited: entries from further up
Target,log2 fold change [1],log2 fold change (crizotinib),log2 fold change [2],log2 fold change [3],log2 fold change (tozasertib),log2 fold change (doramapimod),log2 fold change (ispinesib),log2 fold change (bafetinib),log2 fold change [4],log2 fold change [5],log2 fold change (tipifarnib),log2 fold change (mubritinib),log2 fold change (duvelisib),log2 fold change (gandotinib),log2 fold change [6],log2 fold change [7],log2 fold change (nilotinib),log2 fold change [8],log2 fold change (dasatinib),log2 fold change [9]
CDC42SE2 (UniProt Q9NRR3),inactive: 0.049,–,inactive: 0.052,inactive: -0.27,inactive: -0.023,–,–,inactive: 0.216,inactive: 0.003,–,inactive: -0.021,inactive: 0.027,–,–,–,–,inactive: 0.079,inactive: 0.008,–,inactive: 0.03
CHCHD7 isoform 4 (UniProt Q9BUK0),inactive: -0.05,inactive: -0.025,–,inactive: -0.171,inactive: -0.038,inactive: -0.05,inactive: 0.019,inactive: -0.101,inactive: 0.028,inactive: -0.016,inactive: -0.005,inactive: -0.02,inactive: 0.042,inactive: -0.007,inactive: 0.038,inactive: 0.122,inactive: -0.092,inactive: -0.005,inactive: 0.044,inactive: -0.064
